In patent publication US12133900B2, “Synthesis and composition of amino acid linking groups conjugated to compounds used for the targeted imaging of tumors” (Purdue Research Foundation, priority 2013, dated 2024):

Assay: Dye fluorescence imaged through 1 cm porcine muscle
Details: 100 nM dye in PBS under 1 cm porcine muscle

CC1(C)C(/C=C/C2=C(Oc3ccc(S(=O)(=O)O)cc3)C(=C/C=C3/N(CCCCS(=O)(=O)O)c4ccc(S(=O)(=O)[O-])cc4C3(C)C)/CCC2)=[N+](CCCCCC(=O)O)c2ccc(S(=O)(=O)O)cc21 [IR800CW]
fluorescent signal through tissue: brightest fluorescent signal
